Data as given in PubChem BioAssay AID1224828 (NIAID, 2016).
In all, the deposit lists about 17,000 reagents; below is a part drawn at random. Over the whole deposit, 762 (4.5%) got an active call. 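Active calls include both raised and lowered p65 entry, mostly lowered; wells with fewer than 50 cells lack a z-score.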 The raw values are shown without normalisation. Entries without a mark were called inactive. Reagent sequences are not shown.

Screen: 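Regulators linking TLR4 signalling to p65 nuclear translocation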 (primary screen)
Cells: mouse RAW264.7 G9 macrophage reporter cells (GFP-p65, Tnf promoter-mCherry)
Knock-down reagent: siRNA pool against mouse genes, 100 nM
Timing: 2 days siRNA transfection, then 40 min LPS before fixation
Conditions: LPS (Salmonella minnesota R595) at 10 ng/ml
Measurement: 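Microscopy ratio of nuclear to perinuclear-ring GFP-p65 signal, scaled to the plate median; gene score is the average of two replicate robust z-scores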
Direction: p65 translocation robust z-score: higher = more nuclear NF-kappaB p65 after LPS than the plate median; nuclear/cytoplasmic p65 ratio: higher = more nuclear NF-kappaB p65
Rule for the call: 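Called active when z exceeds 3.3 or falls under -1.56 (median of Tlr4 controls), giving activity score of at least 50; no calls for control wells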
Calls: active = hit (p65 shift raised or lowered); inactive = no clear change

With knock-down of Atp9a (ATPase, class II, type 9A) the results were p65 translocation robust z-score -0.34; nuclear/cytoplasmic p65 ratio, rep 1 = 1.54; nuclear/cytoplasmic p65 ratio, rep 2 = 1.59; low cell count flag enough cells to score. Against Cetn1 (centrin 1), the values are p65 translocation robust z-score -1.39; nuclear/cytoplasmic p65 ratio, rep 1 = 1.29; nuclear/cytoplasmic p65 ratio, rep 2 = 1.2; low cell count flag enough cells to score. After knock-down of B3gat1 (beta-1,3-glucuronyltransferase 1) the results were p65 translocation robust z-score -1.59 (active); nuclear/cytoplasmic p65 ratio, rep 1 = 1.3; nuclear/cytoplasmic p65 ratio, rep 2 = 1.59; low cell count flag enough cells to score. Against Nrp2 (neuropilin 2) the deposit lists p65 translocation robust z-score 0.19; nuclear/cytoplasmic p65 ratio, rep 1 = 1.46; nuclear/cytoplasmic p65 ratio, rep 2 = 1.45; low cell count flag enough cells to score. Sec63 (SEC63 homolog, protein translocation regulator) gave p65 translocation robust z-score 0.57; nuclear/cytoplasmic p65 ratio, rep 1 = 1.57; nuclear/cytoplasmic p65 ratio, rep 2 = 1.24; low cell count flag enough cells to score. A330070K13Rik (RIKEN cDNA A330070K13 gene) scored nuclear/cytoplasmic p65 ratio, rep 1 = 1.09; nuclear/cytoplasmic p65 ratio, rep 2 = 1.19; low cell count flag fewer than 50 cells per well; well left out of scoring.

For Usp30 (ubiquitin specific peptidase 30), the entry reads p65 translocation robust z-score -0.21; nuclear/cytoplasmic p65 ratio, rep 1 = 1.46; nuclear/cytoplasmic p65 ratio, rep 2 = 1.49; low cell count flag enough cells to score. Silencing of Foxd4 (forkhead box D4) resulted in: p65 translocation robust z-score 0.06; nuclear/cytoplasmic p65 ratio, rep 1 = 1.62; nuclear/cytoplasmic p65 ratio, rep 2 = 1.45; low cell count flag enough cells to score. Depletion of Prag1 (PEAK1 related kinase activating pseudokinase 1) resulted in: p65 translocation robust z-score -1.67 (active); nuclear/cytoplasmic p65 ratio, rep 1 = 1.46; nuclear/cytoplasmic p65 ratio, rep 2 = 1.14; low cell count flag enough cells to score. Against Chit1 (chitinase 1), the entry reads p65 translocation robust z-score 0.36; nuclear/cytoplasmic p65 ratio, rep 1 = 1.64; nuclear/cytoplasmic p65 ratio, rep 2 = 1.42; low cell count flag enough cells to score. Against Smpdl3a (sphingomyelin phosphodiesterase, acid-like 3A), the entry reads nuclear/cytoplasmic p65 ratio, rep 1 = 1.41; nuclear/cytoplasmic p65 ratio, rep 2 = 0.864; low cell count flag fewer than 50 cells per well; well left out of scoring. Nnt (nicotinamide nucleotide transhydrogenase) gave p65 translocation robust z-score 0.94; nuclear/cytoplasmic p65 ratio, rep 1 = 1.54; nuclear/cytoplasmic p65 ratio, rep 2 = 1.57; low cell count flag enough cells to score.

Silencing of Skap2 (src family associated phosphoprotein 2) resulted in: p65 translocation robust z-score -0.42; nuclear/cytoplasmic p65 ratio, rep 1 = 1.42; nuclear/cytoplasmic p65 ratio, rep 2 = 1.49; low cell count flag enough cells to score. Knock-down of Rbfox2 (RNA binding protein, fox-1 homolog (C. elegans) 2) came out at: p65 translocation robust z-score 1.42; nuclear/cytoplasmic p65 ratio, rep 1 = 1.56; nuclear/cytoplasmic p65 ratio, rep 2 = 1.41; low cell count flag enough cells to score. Tmprss5 (transmembrane protease, serine 5 (spinesin)) gave nuclear/cytoplasmic p65 ratio, rep 1 = 1.41; nuclear/cytoplasmic p65 ratio, rep 2 = 1.51; low cell count flag fewer than 50 cells per well; well left out of scoring. After knock-down of Trpc7, the record shows p65 translocation robust z-score -0.02; nuclear/cytoplasmic p65 ratio, rep 1 = 1.51; nuclear/cytoplasmic p65 ratio, rep 2 = 1.5; low cell count flag enough cells to score. After knock-down of Orc1 (origin recognition complex, subunit 1), the record shows p65 translocation robust z-score 0.04; nuclear/cytoplasmic p65 ratio, rep 1 = 1.53; nuclear/cytoplasmic p65 ratio, rep 2 = 1.18; low cell count flag enough cells to score. Srgap3 (SLIT-ROBO Rho GTPase activating protein 3) scored p65 translocation robust z-score -0.51; nuclear/cytoplasmic p65 ratio, rep 1 = 1.49; nuclear/cytoplasmic p65 ratio, rep 2 = 1.71; low cell count flag enough cells to score.

After knock-down of Abca3 (ATP-binding cassette, sub-family A member 3), the record shows p65 translocation robust z-score 1.61; nuclear/cytoplasmic p65 ratio, rep 1 = 1.8; nuclear/cytoplasmic p65 ratio, rep 2 = 1.98; low cell count flag enough cells to score. With knock-down of Gnas (GNAS complex locus), the screen gave p65 translocation robust z-score 0.6; nuclear/cytoplasmic p65 ratio, rep 1 = 1.55; nuclear/cytoplasmic p65 ratio, rep 2 = 1.71; low cell count flag enough cells to score. With knock-down of Ube2t (ubiquitin-conjugating enzyme E2T), the record shows p65 translocation robust z-score 2.28; nuclear/cytoplasmic p65 ratio, rep 1 = 1.81; nuclear/cytoplasmic p65 ratio, rep 2 = 2.1; low cell count flag enough cells to score.

A portion taken from the entries so far, for reference:
Smpdl3a (sphingomyelin phosphodiesterase, acid-like 3A) | nuclear/cytoplasmic p65 ratio, rep 1: 1.41; nuclear/cytoplasmic p65 ratio, rep 2: 0.864; low cell count flag: fewer than 50 cells per well; well left out of scoring
Nnt (nicotinamide nucleotide transhydrogenase) | p65 translocation robust z-score: 0.94; nuclear/cytoplasmic p65 ratio, rep 1: 1.54; nuclear/cytoplasmic p65 ratio, rep 2: 1.57; low cell count flag: enough cells to score
Skap2 (src family associated phosphoprotein 2) | p65 translocation robust z-score: -0.42; nuclear/cytoplasmic p65 ratio, rep 1: 1.42; nuclear/cytoplasmic p65 ratio, rep 2: 1.49; low cell count flag: enough cells to score
